Source: PMC8452302 (CPT: Pharmacometrics & Systems Pharmacology, 2021)

Experiments:
BCRP = molecular target: T1, BCRP (Homo sapiens, UniProt Q9UNQ0); test: In vitro BCRP inhibition, HEK293-BCRP membrane vesicles, rosuvastatin probe; type: biochemical
T1 sequence (Q9UNQ0 1-655): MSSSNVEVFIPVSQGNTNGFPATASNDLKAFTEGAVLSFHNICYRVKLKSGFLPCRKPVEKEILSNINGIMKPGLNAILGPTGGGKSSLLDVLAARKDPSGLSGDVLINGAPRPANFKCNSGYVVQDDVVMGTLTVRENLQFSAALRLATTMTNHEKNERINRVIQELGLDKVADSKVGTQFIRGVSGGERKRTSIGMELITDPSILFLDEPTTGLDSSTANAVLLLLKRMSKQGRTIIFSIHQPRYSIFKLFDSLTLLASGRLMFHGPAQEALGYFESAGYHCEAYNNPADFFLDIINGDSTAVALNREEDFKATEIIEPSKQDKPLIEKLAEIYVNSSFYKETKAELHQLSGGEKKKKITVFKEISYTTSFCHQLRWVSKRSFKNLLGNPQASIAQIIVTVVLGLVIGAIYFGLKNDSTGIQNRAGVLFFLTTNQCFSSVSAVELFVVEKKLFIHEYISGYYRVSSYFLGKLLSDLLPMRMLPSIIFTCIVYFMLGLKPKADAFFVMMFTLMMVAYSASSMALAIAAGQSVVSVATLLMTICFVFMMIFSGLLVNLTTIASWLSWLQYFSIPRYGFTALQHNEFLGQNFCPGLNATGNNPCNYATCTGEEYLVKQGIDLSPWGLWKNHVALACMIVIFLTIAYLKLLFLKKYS

OATP1B1 = molecular target: T2, OATP1B1 (Homo sapiens, UniProt Q9Y6L6); test: Static DDI risk assessment, OATP1B1 R-value; conditions: 1 + Iin,max,u/IC50; metabolite/combination additive; Imax,u for IV
T2 sequence (Q9Y6L6 1-691): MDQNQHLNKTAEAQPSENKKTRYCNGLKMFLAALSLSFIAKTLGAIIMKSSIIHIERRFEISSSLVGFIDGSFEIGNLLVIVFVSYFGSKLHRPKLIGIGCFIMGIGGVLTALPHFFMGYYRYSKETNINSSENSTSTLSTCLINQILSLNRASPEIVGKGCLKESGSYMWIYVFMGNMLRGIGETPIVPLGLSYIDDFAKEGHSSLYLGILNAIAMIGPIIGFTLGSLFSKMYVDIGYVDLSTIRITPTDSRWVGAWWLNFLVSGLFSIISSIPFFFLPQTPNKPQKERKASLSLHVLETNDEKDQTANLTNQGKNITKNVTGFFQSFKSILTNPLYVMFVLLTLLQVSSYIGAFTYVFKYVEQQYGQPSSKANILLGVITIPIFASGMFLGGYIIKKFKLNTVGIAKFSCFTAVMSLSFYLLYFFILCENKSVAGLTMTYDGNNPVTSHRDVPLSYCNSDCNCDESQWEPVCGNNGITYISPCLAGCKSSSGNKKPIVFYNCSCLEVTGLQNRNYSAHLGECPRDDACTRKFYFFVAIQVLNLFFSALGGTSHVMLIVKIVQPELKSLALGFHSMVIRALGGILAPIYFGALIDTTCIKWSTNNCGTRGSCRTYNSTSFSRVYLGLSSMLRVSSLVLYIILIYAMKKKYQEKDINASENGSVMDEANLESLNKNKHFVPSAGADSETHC

OATP1B3 = molecular target: T3, OATP1B3 (Homo sapiens, UniProt Q9NPD5); test: Static DDI risk assessment, OATP1B3 R-value; conditions: 1 + Iin,max,u/IC50; metabolite/combination additive; Imax,u for IV
T3 sequence (Q9NPD5 1-702): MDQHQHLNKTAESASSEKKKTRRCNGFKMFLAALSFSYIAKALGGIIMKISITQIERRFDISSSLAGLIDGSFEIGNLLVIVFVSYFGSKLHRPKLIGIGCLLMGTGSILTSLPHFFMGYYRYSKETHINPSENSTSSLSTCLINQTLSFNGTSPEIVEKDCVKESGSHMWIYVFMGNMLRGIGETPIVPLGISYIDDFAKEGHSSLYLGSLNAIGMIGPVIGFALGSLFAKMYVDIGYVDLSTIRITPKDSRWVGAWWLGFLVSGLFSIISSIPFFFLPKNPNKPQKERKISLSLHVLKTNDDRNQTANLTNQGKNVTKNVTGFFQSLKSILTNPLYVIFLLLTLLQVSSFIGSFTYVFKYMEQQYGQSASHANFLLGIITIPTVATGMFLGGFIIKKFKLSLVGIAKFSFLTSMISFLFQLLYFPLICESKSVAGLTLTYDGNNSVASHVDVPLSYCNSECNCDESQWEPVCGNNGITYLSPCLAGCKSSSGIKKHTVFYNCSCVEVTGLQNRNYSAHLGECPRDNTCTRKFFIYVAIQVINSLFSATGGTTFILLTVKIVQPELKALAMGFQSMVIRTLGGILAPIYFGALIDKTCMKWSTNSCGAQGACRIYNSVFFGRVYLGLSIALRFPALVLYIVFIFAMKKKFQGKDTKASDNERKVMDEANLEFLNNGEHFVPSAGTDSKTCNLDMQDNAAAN

CC(C)c1c(C(=O)Nc2ccccc2)c(-c2ccccc2)c(-c2ccc(F)cc2)n1CC[C@@H](O)C[C@@H](O)CC(=O)O [Atorvastatin]
IC50 (BCRP): 8.6 µM
1B1 R-Value (OATP1B1): 1.01
1B3 R-Value (OATP1B3): 1.00
